Test results as given in the supplement of paper PMC3334620.
In all, about 33,000 sequences were measured (“E-score (-0.5 to 0.5)”: median about -0.015, highest 2% from about 0.3 on). The list shows a part of the results.

Target: T1, Abf1 (UniProt P14164)
T1 sequence: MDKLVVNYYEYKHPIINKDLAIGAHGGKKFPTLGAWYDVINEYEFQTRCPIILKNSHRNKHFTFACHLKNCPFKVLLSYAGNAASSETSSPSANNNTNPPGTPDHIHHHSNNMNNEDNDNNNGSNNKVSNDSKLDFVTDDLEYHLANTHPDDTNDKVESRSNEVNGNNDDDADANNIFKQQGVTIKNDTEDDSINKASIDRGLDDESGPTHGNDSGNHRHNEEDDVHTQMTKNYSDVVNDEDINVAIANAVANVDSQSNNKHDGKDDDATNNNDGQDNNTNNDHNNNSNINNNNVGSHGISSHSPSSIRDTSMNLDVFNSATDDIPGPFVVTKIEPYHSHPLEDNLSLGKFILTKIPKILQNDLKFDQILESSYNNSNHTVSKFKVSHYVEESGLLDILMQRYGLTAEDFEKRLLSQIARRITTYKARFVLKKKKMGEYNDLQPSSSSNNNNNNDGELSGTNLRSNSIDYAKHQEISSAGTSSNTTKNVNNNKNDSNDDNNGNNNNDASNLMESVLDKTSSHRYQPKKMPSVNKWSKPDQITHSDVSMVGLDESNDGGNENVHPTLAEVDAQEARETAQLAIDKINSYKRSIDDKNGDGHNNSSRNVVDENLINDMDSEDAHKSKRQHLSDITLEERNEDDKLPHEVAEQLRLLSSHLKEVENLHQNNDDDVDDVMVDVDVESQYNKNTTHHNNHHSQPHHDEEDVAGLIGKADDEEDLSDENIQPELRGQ
Assay: PBM E-score (8-mer binding enrichment) (E-score (-0.5 to 0.5)); higher = stronger / more preferred TF binding
Conditions: protein concentration: 200 nM; construct: GST-full length
Description: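 Universal 'all 10-mer' protein binding microarrays (Agilent AMADID 015681) probed with GST-tagged S. cerevisiae TFs (full-length or DBD) made by in vitro transcription/translation (PURExpress), about 100-200 nM. Bound TF was detected with fluorescent anti-GST. Each ungapped 8-mer (which stands for itself and its reverse complement) is scored by the PBM enrichment score (E-score), a modified Wilcoxon-Mann-Whitney statistic from -0.5 to +0.5, computed with the Universal PBM Analysis Suite. Scale: above 0.35 generally sequence-specific binding.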

| Sequence | PBM E-score |
| --- | --- |
| GACACGGA | 0.167 |
| AGAACGCT | -0.0434 |
| GAGATACA | 0.146 |
| AGGATCAG | -0.28 |
| CTGCAATA | -0.019 |
| TTCCAGAA | -0.0293 |
| CTTACCCA | -0.185 |
| GATAGGAA | 0.0434 |
| TGTGACAA | 0.221 |
| GGATTACC | -0.197 |
| ACTTCAGC | -0.124 |
| ATCCTAAG | 0.0143 |
| ACAGCAAC | 0.134 |
| GTTTCCTA | -0.019 |
| CATTGTAC | 0.0707 |
| CGTATCAC | 0.281 |
| AAAACGGA | 0.132 |
| AAAGACGT | 0.209 |
| CATGGTAG | -0.0639 |
| GATACAAA | 0.191 |
| CAGCGGGG | -0.211 |
| ACTTTTAG | 0.115 |
| TGTTAACA | -0.166 |
| CATCTAGA | -0.012 |

| Sequence | PBM E-score |
| --- | --- |
| GGATATAA | 0.298 |
| CCTACCCA | -0.0556 |
| ATGGTCGC | -0.0347 |
| CATTGGCC | -0.225 |
| ACGTGTCG | 0.0554 |
| GATTCGGA | 0.096 |
| GCTAGGAC | -0.205 |
| TCCCTCAA | -0.144 |
| CCATGATA | 0.126 |
| AGAGACCT | -0.0443 |
| ATACTCAG | 0.106 |
| GTGCACCA | -0.132 |
| ACATAAGC | -0.0854 |
| ACACACAT | 0.0467 |
| GACTCTCA | -0.0261 |
| GCCTCGGA | -0.182 |
| CAGTTGAG | -0.16 |
| AGATCACT | 0.437 |
| GGTTCTTA | 0.0253 |
| ACACAGCC | 0.00017 |
| GCTGCGAA | 0.054 |
| CGACACAA | -0.0728 |
| AATCACAT | 0.157 |
| AAGTACTT | -0.0461 |

| Sequence | PBM E-score |
| --- | --- |
| AGGTCGTC | 0.208 |
| TACGTCTA | 0.0776 |
| CAGATAGC | -0.224 |
| GGCCGGGA | 0.0147 |
| ATGGTTCA | -0.00066 |
| ATTGACAC | -0.12 |
| AAATCTGC | -0.0123 |
| GCTCGCCC | -0.13 |
| CGGAAGGA | -0.238 |
| ACTGATAC | -0.00711 |
| AACCCGTA | -0.156 |
| CTGAGCGC | -0.0613 |
| AAGGAGTC | -0.211 |
| GATAACTA | 0.202 |
| CTAGCATA | -0.0264 |
| AAAATGCC | 0.173 |
| AAATGGTA | 0.145 |
| CTTGATCC | -0.0509 |
| GTTCACAA | 0.177 |
| CCTTAGAA | -0.109 |
| GATGCAAA | -0.124 |
| CGAGCTAA | -0.116 |
| AGGCCTAT | -0.124 |
| GCTAATGA | 0.138 |

No new results follow: an excerpt of the list.

| Sequence | PBM E-score |
| --- | --- |
| CTTGATCC | -0.0509 |
| GTTCACAA | 0.177 |

(cont.)

| Sequence | PBM E-score |
| --- | --- |
| GCTGAGAC | -0.0657 |
| ACACTTGC | -0.0133 |
| GTATAACA | 0.203 |
| AGACGGCT | -0.0258 |
| GCCGGGTA | -0.118 |
| GCTGGAGA | -0.0857 |
| AACATCCT | -0.103 |
| GGCGTGAC | 0.137 |
| GATGCCGA | 0.0182 |
| AAACCGGT | -0.0782 |
| CCGGTTCA | -0.0583 |
| CGTCCGGC | -0.0786 |
| GAAGAGGC | -0.196 |
| ATCCAACC | -0.0316 |
| AGCGTAGG | -0.163 |
| GCGGTCCA | -0.217 |
| GAGGTCAA | -0.0287 |
| TCTGGCAA | 0.0171 |
| AAAAAATA | 0.142 |
| AGTTCTCA | 0.0633 |
| TATACCAA | 0.00425 |
| GTATTGAA | 0.108 |

A different layout for some results above:
Sequence,PBM E-score
ATTGACAC,-0.12
AAATCTGC,-0.0123
